Measured values taken from the supplement of paper PMC11348887.
Counter-ions that a name gives are not always drawn. This is one part of the list. Most entries show no effect beyond the scatter of the controls. Where a SMILES comes first, the peptide text is derived from it.

test system: hPSC-derived cortical neurons (WA09); assay: nucleus roundness z-score vs screen plate; higher = rounder nuclei (more mature); settings: 5 µM; treatment: days 7-14 after plating, readout day 21

SMILES | nucleus roundness z-score
C=C1CC[C@@H]2[C@](C)(CO)[C@H](O)CC[C@@]2(C)[C@@H]1C/C=C1/C(=O)OC[C@H]1O [Andrographolide] | -1.53
CCC(=O)O[C@@H](O[P@](=O)(CCCCc1ccccc1)CC(=O)N1C[C@H](C2CCCCC2)C[C@H]1C(=O)O)C(C)C [Fosinopril Sodium] | -0.615
Cc1onc(-c2c(Cl)cccc2Cl)c1C(=O)N[C@@H]1C(=O)N2[C@@H]1SC(C)(C)[C@@H]2C(=O)O [Dicloxacillin Sodium] | -0.625
CCOc1cc(C(C)(C)C)ccc1C1=N[C@@](C)(c2ccc(Cl)cc2)[C@@](C)(c2ccc(Cl)cc2)N1C(=O)N1CCN(CCCS(C)(=O)=O)CC1 | 0.979
CN1CCC(Nc2nc(Nc3ccc(Oc4ccccc4)cc3)c3c(=O)[nH]cc(Br)c3n2)CC1 | -3.69
Oc1c(I)cc(I)c2cccnc12 [Diiodohydroxyquinoline] | 0.539
O=C1OC(CN2CCOCC2)CN1/N=C/c1ccc([N+](=O)[O-])o1 (stereo not given) [Furaltadone HCl] | 0.0339
Cc1cccc(C)c1NC(=O)C1CCCCN1C (stereo not given) [Mepivacaine HCl] | -0.174
CC1(C)[C@H](C(=O)O)N2C(=O)C[C@H]2S1(=O)=O [Sulbactam sodium] | 0.685
COc1c(C)c(C(=O)c2ccc(N)c(C(=O)O)c2)n2ccccc12 | 0.356
COc1ccc2[nH]c([S+]([O-])Cc3ncc(C)c(OC)c3C)nc2c1 (stereo not given) [Omeprazole] | 1.24
O=C1O[C@H](CO)[C@@H](O)[C@H](O)[C@H]1O [Gluconolactone] | 0.655
O=C(O)/C=C/c1ccc(Cn2ccnc2)cc1 [Ozagrel HCl] | -0.315
CN1CCN(c2cccc(Nc3nc4c(-c5ccc(S(C)(=O)=O)cc5)cccn4n3)c2)CC1 | -0.856
CC(C)C[C@H](NC(=O)[C@H](Cc1ccccc1)NC(=O)c1cnccn1)B(O)O [Bortezomib (PS-341)] | -4.78
CN1CCN(c2ccc(Nc3ncc4cc(C#N)c(=O)n(C5CCCC5)c4n3)cc2)CC1 | -4.33
O=S(=O)(O)CCCS(=O)(=O)O [Eprodisate disodium] | 0.595
CCCCCCCCCCCCCCCCn1cc[n+](Cc2ccccc2)c1C | -105
C[C@@H](CN1CC(=O)NC(=O)C1)N1CC(=O)NC(=O)C1 [Dexrazoxane HCl (ICRF-187_ ADR-529)] | -0.395
CO[C@H]1/C=C/O[C@@]2(C)Oc3c(C)c(O)c4c(O)c(c(/C=N/N5CCN(C)CC5)c(O)c4c3C2=O)NC(=O)/C(C)=C\C=C\[C@H](C)[C@H](O)[C@@H](C)[C@@H](O)[C@@H](C)[C@H](OC(C)=O)[C@@H]1C [Rifampin] | -1.12

SMILES | nucleus roundness z-score
CC1(C)O[C@@H]2C[C@H]3[C@@H]4CCC5=CC(=O)CC[C@]5(C)[C@@]4(F)[C@@H](O)C[C@]3(C)[C@]2(C(=O)CCl)O1 [Halcinonide] | -0.965
Nc1cccc(-c2cc3c(Oc4cccc(O)c4)ncnc3[nH]2)c1 | 0.811
Nc1ccc(C(=O)Nc2cccc(-c3nc(N4CCOCC4)c4oc5ncccc5c4n3)c2)cn1 | -2.92
CN1CCN(C2=Nc3ccccc3Oc3ccc(Cl)cc32)CC1 [Loxapine Succinate] | -0.343
C[C@H]1[C@H](C)CC[C@]2(C(=O)O)CC[C@]3(C)C(=CC[C@@H]4[C@@]5(C)CC[C@H](O)C(C)(C)[C@@H]5CC[C@]43C)[C@H]12 [Ursolic Acid] | -0.891
COc1cc(O)c(CC=C(C)C)c(O)c1C(=O)/C=C/c1ccc(O)cc1 [Xanthohumol] | -1.07
CC(C)NC[C@@H](C(=O)N1CCN(c2ncnc3c2[C@H](C)C[C@H]3O)CC1)c1ccc(Cl)cc1 | -1.66
OCc1ccccc1 [Benzyl alcohol] | -0.181
NC(=O)c1ncn([C@@H]2O[C@H](CO)[C@@H](O)[C@H]2O)c1O [Mizoribine] | 0.164
CC(C)(S)[C@@H](N)C(=O)O [Penicillamine] | 0.332
CN(C)CC[C@H](CSc1ccccc1)Nc1ccc(S(=O)(=O)NC(=O)c2ccc(N3CCN(Cc4ccccc4-c4ccc(Cl)cc4)CC3)cc2)cc1[N+](=O)[O-] | -2.86
COCCOc1nc(-c2ccc(Cl)c(Cl)c2)n(-c2ccc(NC(=O)CCl)cc2)n1 [MI-2 (MALT1 inhibitor)] | -4.14
O=C(CCCN1CCN(c2ccccn2)CC1)c1ccc(F)cc1 [Azaperone] | 0.648
O=C(/C=C/c1ccc(CN(CCO)CCc2c[nH]c3ccccc23)cc1)NO [LAQ824 (Dacinostat)] | -3.7
CC(C)CC(NC(=O)C(Cc1ccccc1)NC(=O)C(CCC(N)=O)NC(=O)C(Cc1ccc(O)cc1)NC(=O)C(C)NC(=O)CNC(=O)C(CCCCN)NC(=O)C(Cc1c[nH]c2ccccc12)NC(=O)C(NC(=O)C(Cc1c[nH]c2ccccc12)NC(=O)C(CCCCN)NC(=O)CNC(=O)C(CC(N)=O)NC(=O)C(CCC(=O)O)NC(=O)C(Cc1c[nH]c2ccccc12)NC(=O)C(NC(=O)C(Cc1c[nH]c2ccccc12)NC(=O)C(CO)NC(=O)CNC(=O)C1CCCN1C(=O)C(Cc1c[nH]c2ccccc12)NC(=O)C(CCC(N)=O)NC(=O)C(Cc1ccccc1)NC(=O)CNC(=O)C(N)Cc1c[nH]cn1)C(C)O)C(C)O)C(=O)NC(CCCCN)C(=O)NCC(=O)NCC(=O)NCC(=O)NCC(=O)NC(CO)C(=O)NC(CCCNC(=N)N)C(=O)NC(CCCNC(=N)N)C(=O)NC(CCCNC(=N)N)C(=O)NC(CCCNC(=N)N)C(=O)NC(CCCNC(=N)N)C(=O)NC(CCCNC(=N)N)C(=O)NC(CCCNC(=N)N)C(=O)NC(CCCNC(=N)N)C(=O)NC(CCCNC(=N)N)C(=O)O (stereo not given) (H-HGFQWPGSWTWENGKWTWKGAYQFLKGGGGSRRRRRRRRR-OH; configuration not given here) | -2.18
O=C(O)P(=O)(O)O [Foscarnet Sodium] | 0.334
COc1nc(-c2ccc3c(c2)OCO3)n(-c2ccc(NC(=O)CSc3ccccc3)cc2)n1 [SecinH3] | -0.0944
NCCS [Cysteamine HCl] | -0.31
CN[C@@H]1[C@H](O)[C@H](NC)[C@H]2O[C@@]3(O)C(=O)C[C@@H](C)O[C@H]3O[C@@H]2[C@H]1O [Spectinomycin HCl] | 0.214
CN(C)c1ccc2nc3ccc(=[N+](C)C)cc-3sc2c1 [Methylene Blue] | -1.45

Another view of some results above:
SMILES	nucleus roundness z-score
COc1cc(O)c(CC=C(C)C)c(O)c1C(=O)/C=C/c1ccc(O)cc1 [Xanthohumol]	-1.07
CC(C)NC[C@@H](C(=O)N1CCN(c2ncnc3c2[C@H](C)C[C@H]3O)CC1)c1ccc(Cl)cc1	-1.66
